In publication doi:10.1101/2020.04.06.007948:
No constants are given. Whether binding was seen depends on the method and setting. Some entries that bind do so weakly or less than the wild type. Tags and fused reporters may be left off the sequences shown.

Target: T1, α-DG of wild-type DG expressed from adenovirus (Ad-DG) in POMK/DG KO HAP1 cells (UniProt Q28685)
T1 sequence (chain, core M3 not phosphorylated (POMK KO cells); short, non-extended matriglycan): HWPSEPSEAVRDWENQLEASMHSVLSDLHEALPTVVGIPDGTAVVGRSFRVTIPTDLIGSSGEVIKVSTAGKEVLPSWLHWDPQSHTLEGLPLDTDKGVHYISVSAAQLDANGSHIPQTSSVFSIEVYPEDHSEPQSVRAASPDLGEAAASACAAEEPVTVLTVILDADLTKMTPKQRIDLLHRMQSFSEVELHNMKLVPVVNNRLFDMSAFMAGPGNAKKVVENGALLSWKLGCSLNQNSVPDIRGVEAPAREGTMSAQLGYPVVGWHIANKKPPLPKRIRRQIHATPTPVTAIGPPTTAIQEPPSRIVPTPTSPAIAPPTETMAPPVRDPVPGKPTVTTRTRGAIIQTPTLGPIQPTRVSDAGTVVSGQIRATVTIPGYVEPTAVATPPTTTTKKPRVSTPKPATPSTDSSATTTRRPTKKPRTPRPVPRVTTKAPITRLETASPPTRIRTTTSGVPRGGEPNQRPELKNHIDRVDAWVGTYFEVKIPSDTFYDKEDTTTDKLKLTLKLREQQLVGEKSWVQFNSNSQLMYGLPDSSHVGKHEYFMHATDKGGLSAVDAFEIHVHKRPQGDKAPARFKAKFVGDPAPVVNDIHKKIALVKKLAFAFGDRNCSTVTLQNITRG
Test: far-Western, overlay or dot blot

“mouse Engelbreth-Holm-Swarm (EHS) laminin (from UniProt P19137 25-3083; P02469 22-1786; P02468 34-1607) (complex)” was tested. Which binding did it give?
Its binding is “binds”.
